# The supplement of paper PMC12819154, “High-throughput peptide-centric local stability assay extends protein–ligand identification to membrane proteins, tissues and bacteria” (Nature Structural & Molecular Biology, 2025)
# Sequences of proteins named here, by UniProt entry; tags and fusion partners are left off. A change or cut given only in a name is not applied to a line headed by its entry.
# UniProt Q8K2I3: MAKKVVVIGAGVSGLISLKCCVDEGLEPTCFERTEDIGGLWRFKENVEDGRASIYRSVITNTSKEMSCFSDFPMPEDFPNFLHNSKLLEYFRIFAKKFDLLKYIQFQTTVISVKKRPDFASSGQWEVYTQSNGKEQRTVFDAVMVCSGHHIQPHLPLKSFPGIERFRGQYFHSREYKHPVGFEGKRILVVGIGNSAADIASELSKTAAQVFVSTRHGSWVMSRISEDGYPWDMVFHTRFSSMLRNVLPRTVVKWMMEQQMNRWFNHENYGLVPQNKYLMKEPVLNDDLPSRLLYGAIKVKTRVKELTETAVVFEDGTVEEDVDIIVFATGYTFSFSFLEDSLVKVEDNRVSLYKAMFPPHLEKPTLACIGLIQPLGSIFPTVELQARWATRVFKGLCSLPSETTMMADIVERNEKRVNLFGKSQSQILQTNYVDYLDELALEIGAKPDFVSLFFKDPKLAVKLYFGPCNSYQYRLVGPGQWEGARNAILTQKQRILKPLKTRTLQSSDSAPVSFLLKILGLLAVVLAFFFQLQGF
# UniProt Q8R0J7: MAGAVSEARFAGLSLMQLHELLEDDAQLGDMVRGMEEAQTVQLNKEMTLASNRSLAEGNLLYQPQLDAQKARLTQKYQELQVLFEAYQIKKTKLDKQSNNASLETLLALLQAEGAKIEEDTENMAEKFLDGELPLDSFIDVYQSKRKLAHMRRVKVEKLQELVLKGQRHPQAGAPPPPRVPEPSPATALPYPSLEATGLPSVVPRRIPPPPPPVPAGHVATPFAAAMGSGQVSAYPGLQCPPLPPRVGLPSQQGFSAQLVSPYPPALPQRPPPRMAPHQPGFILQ
# UniProt Q8K2Q5: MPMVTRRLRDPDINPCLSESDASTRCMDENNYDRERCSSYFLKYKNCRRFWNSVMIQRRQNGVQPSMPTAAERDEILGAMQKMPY
# UniProt Q8R173: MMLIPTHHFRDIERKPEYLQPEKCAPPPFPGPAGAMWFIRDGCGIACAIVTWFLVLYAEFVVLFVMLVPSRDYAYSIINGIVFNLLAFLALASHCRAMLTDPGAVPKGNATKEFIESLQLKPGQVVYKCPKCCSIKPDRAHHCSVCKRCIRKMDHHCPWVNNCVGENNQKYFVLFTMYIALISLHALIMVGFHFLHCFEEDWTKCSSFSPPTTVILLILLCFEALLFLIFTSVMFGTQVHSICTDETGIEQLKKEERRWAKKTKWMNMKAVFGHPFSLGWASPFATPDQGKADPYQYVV
# UniProt Q8R0F9: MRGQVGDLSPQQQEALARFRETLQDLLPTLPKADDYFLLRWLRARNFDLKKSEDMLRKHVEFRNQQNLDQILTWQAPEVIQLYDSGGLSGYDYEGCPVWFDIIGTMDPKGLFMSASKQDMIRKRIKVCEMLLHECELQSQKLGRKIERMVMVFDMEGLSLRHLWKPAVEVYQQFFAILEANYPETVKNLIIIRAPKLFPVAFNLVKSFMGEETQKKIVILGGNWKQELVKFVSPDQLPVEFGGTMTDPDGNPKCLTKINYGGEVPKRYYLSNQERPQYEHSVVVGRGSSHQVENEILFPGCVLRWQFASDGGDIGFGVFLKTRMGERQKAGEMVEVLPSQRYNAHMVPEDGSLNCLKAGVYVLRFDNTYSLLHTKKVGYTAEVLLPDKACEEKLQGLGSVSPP
# UniProt Q8R0Z6: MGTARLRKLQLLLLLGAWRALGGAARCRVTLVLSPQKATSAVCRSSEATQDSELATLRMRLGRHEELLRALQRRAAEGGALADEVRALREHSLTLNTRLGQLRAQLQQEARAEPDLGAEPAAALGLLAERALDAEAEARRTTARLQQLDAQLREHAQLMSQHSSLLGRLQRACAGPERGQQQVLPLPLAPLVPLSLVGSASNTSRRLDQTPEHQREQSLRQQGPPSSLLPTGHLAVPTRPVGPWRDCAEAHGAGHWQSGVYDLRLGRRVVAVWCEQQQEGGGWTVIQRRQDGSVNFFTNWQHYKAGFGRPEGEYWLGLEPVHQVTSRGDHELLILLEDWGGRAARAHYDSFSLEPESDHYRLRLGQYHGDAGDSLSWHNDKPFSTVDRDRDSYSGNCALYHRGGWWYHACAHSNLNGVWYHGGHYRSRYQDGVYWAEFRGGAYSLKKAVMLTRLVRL
# UniProt Q8K1L5: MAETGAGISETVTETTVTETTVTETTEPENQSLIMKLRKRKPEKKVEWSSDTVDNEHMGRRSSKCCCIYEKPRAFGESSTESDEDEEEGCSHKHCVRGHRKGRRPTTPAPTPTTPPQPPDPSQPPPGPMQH
# UniProt Q8K310: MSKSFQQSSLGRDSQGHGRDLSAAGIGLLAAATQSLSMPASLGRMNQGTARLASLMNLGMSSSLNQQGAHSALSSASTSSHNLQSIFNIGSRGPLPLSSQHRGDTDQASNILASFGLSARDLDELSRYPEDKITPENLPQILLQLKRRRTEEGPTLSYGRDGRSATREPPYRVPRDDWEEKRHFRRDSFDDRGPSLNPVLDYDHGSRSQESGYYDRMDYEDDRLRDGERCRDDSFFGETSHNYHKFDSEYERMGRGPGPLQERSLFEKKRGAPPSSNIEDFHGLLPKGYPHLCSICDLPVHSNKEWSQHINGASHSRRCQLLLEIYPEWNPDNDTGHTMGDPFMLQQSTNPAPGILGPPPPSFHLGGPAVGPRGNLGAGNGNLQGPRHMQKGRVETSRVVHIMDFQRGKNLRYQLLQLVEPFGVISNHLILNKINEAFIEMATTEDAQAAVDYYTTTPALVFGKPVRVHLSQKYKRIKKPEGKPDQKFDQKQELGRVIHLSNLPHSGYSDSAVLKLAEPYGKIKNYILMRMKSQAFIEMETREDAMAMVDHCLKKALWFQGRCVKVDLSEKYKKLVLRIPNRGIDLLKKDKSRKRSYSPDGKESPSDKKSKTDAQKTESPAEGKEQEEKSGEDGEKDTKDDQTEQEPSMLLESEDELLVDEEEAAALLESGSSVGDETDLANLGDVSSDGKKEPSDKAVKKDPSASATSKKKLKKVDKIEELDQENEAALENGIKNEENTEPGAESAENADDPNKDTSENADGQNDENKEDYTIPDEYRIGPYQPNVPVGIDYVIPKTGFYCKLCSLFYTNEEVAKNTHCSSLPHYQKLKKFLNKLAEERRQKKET
# UniProt Q8K1C0: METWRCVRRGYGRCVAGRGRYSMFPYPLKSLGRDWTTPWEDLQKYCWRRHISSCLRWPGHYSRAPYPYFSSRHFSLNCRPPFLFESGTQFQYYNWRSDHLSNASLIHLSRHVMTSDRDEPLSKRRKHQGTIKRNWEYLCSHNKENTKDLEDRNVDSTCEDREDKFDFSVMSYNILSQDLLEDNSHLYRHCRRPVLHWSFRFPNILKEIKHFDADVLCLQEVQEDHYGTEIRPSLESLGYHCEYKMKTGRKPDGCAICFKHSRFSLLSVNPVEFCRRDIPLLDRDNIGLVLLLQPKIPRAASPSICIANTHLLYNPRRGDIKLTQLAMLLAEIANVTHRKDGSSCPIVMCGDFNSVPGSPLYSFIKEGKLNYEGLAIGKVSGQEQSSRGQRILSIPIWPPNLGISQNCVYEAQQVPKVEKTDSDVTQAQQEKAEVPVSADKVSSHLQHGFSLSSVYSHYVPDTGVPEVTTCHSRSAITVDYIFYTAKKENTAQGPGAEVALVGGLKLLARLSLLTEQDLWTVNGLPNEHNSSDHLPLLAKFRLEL
# UniProt Q8K558: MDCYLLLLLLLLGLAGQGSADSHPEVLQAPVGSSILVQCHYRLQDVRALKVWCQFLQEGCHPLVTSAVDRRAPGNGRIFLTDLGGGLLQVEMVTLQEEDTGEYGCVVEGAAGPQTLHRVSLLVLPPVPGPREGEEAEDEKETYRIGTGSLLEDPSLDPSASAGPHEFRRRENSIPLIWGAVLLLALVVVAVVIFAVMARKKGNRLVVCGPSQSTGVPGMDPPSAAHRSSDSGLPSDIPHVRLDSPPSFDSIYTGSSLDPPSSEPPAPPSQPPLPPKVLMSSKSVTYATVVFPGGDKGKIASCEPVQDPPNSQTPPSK
# UniProt Q8K330: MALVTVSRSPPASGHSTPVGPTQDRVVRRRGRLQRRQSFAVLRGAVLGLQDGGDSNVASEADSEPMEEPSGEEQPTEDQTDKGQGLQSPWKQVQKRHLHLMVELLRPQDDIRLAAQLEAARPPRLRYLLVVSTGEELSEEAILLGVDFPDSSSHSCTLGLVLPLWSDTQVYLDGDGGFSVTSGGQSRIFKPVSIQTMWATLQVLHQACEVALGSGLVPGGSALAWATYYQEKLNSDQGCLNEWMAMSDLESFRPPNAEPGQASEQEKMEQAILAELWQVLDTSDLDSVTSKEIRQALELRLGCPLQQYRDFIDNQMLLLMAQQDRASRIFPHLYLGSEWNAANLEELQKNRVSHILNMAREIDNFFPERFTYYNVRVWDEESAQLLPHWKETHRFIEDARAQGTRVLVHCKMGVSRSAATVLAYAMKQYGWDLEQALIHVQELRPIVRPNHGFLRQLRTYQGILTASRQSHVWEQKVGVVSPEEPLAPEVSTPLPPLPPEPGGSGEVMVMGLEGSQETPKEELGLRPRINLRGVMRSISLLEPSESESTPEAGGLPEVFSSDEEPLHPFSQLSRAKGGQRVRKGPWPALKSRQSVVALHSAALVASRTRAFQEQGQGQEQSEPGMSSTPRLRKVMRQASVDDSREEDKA
# UniProt Q8QZR1: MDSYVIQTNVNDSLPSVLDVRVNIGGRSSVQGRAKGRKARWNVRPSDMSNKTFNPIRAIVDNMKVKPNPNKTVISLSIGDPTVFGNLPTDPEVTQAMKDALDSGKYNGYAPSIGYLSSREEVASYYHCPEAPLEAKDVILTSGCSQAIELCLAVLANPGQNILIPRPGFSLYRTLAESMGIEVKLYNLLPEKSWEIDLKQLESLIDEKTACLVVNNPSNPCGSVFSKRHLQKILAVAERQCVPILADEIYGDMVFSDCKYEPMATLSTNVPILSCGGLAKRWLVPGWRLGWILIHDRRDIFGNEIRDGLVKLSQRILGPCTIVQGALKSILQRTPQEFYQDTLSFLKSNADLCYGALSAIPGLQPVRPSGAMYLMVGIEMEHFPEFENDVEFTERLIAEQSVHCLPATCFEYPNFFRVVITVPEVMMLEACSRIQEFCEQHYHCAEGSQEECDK
# UniProt Q8K4Z3: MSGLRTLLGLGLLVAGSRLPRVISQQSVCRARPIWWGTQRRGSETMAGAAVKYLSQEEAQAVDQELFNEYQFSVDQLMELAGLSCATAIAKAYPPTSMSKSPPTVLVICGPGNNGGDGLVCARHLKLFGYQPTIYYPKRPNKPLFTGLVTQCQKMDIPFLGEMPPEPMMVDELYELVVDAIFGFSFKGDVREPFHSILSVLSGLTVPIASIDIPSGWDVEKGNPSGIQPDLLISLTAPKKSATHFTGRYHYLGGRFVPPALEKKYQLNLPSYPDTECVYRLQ
# UniProt Q8K370: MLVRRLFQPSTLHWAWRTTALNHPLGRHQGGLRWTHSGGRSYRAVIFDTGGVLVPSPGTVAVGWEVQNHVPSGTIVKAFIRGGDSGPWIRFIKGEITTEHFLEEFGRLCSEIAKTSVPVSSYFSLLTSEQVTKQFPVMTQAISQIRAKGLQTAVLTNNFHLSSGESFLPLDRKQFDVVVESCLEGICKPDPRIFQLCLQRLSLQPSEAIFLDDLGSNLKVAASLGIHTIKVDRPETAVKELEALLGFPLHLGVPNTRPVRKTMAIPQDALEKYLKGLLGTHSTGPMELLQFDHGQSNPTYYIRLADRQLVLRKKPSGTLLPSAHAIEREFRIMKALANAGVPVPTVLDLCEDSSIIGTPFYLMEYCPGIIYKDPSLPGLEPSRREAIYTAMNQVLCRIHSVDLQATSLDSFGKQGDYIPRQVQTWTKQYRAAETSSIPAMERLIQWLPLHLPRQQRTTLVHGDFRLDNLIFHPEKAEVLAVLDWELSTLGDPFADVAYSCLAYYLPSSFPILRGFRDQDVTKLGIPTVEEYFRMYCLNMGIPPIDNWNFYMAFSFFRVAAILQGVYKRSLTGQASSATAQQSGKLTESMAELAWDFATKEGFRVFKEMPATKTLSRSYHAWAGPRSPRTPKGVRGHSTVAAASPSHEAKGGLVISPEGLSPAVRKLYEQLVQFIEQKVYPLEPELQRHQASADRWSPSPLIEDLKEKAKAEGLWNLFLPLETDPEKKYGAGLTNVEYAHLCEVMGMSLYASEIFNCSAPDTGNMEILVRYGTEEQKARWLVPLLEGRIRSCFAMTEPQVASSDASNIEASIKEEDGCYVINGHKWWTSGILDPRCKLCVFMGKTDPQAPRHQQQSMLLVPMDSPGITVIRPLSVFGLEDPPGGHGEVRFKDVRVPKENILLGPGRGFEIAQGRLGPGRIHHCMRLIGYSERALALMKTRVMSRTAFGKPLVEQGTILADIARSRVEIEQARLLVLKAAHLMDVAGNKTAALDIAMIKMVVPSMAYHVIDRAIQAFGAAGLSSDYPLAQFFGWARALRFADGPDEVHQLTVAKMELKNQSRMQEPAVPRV
# UniProt Q8R2M0: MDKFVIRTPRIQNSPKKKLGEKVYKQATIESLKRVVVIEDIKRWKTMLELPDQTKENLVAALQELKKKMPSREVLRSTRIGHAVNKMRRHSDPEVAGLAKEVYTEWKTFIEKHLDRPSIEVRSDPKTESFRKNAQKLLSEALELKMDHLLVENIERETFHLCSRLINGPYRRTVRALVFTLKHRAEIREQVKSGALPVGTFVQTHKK
# The list shows a part of the results. Most entries show no effect beyond the scatter of the controls.
# Compound: CN[C@@H]1C[C@H]2O[C@@](C)([C@@H]1OC)n1c3ccccc3c3c4c(c5c6ccccc6n2c5c31)C(=O)NC4 [staurosporine]
# Experiment: log2 fold change of tryptic peptide abundance, ligand vs vehicle (limited proteolysis) (log2 ratio); higher = more trypsin-susceptible (destabilized)
# Conditions: ligand concentration: 20 uM; sample: mouse liver crude lysate; replicate design: treated separately
row,Target,log2 fold change
1,"UniProt Q8K2I3 (peptide sequence: FKENVEDGR, peptide start residue: 43)",-0.352
2,"UniProt Q8R0W0 (peptide sequence: AEHSITGYR, peptide start residue: 1012)",0.742
3,"UniProt Q8K4J0 (peptide sequence: ALPLDQPELR, peptide start residue: 419)",0.113
4,"UniProt Q8R1B4 (peptide sequence: ELLGQGLLLR, peptide start residue: 642)",0.189
5,"UniProt Q8R1L8 (peptide sequence: ALEFLGTEVR, peptide start residue: 73)",-0.173
6,"UniProt Q8R0J7 (peptide sequence: HPQAGAPPPPR, peptide start residue: 169)",0.174
7,"UniProt Q8K1E6 (peptide sequence: KKPPPEENGDYTYVER, peptide start residue: 219)",0.322
8,"UniProt Q8K2Q5 (peptide sequence: FWNSVMIQR, peptide start residue: 50)",0.587
9,"UniProt Q8R2M2 (peptide sequence: LTAQNHQNLHIQEEK, peptide start residue: 269)",0.872
10,"UniProt Q8R0J1 (peptide sequence: LPPEDRR, peptide start residue: 121)",-0.224
11,"UniProt Q8K136 (peptide sequence: APHYNSCCRR, peptide start residue: 120)",-0.206
12,"UniProt Q8K2V6 (peptide sequence: TYKDCMLMSQHEEPK, peptide start residue: 890)",0.887
13,"UniProt Q8R059 (peptide sequence: AVIHFAGLK, peptide start residue: 83)",0.353
14,"UniProt Q8K2C6 (peptide sequence: GAPEPETQDAR, peptide start residue: 188)",0.122
15,"UniProt Q8R173 (peptide sequence: KTKWMNMK, peptide start residue: 262)",-0.0406
16,"UniProt Q8R0X2 (peptide sequence: ELIQNGFTR, peptide start residue: 342)",-0.175
17,"UniProt Q8K4J6 (peptide sequence: GAPAMDSSYAK, peptide start residue: 286)",-0.271
18,"UniProt Q8R2Q8 (peptide sequence: KVSQALEQQAR, peptide start residue: 110)",0.362
19,"UniProt Q8K2Y9 (peptide sequence: TEILHFIDKAK, peptide start residue: 86)",-0.499

row,Target,log2 fold change
1,"UniProt Q8R0F9 (peptide sequence: QKAGEMVEVLPSQR, peptide start residue: 328)",-0.506
2,"UniProt Q8R0Z6 (peptide sequence: AQLQQEAR, peptide start residue: 104)",-0.165
3,"UniProt Q8K1H1 (peptide sequence: QPGFASDYSISR, peptide start residue: 125)",0.163
4,"UniProt Q8K1L5 (peptide sequence: VEWSSDTVDNEHMGRR, peptide start residue: 46)",-0.394
5,"UniProt Q8K310 (peptide sequence: GPLPLSSQHR, peptide start residue: 93)",0.353
6,"UniProt Q8K1C0 (peptide sequence: TDSDVTQAQQEK, peptide start residue: 420)",0.31
7,"UniProt Q8R2E9 (peptide sequence: SFPMHFDEK, peptide start residue: 352)",-0.357
8,"UniProt Q8K558 (peptide sequence: SSDSGLPSDIPHVR, peptide start residue: 228)",-0.126
9,"UniProt Q8K1E0 (peptide sequence: DVAIDMMDPR, peptide start residue: 242)",-0.0681
10,"UniProt Q8K2R5 (peptide sequence: RHERSHPELR, peptide start residue: 533)",0.155
11,"UniProt Q8K330 (peptide sequence: QSHVWEQK, peptide start residue: 469)",-0.142
12,"UniProt Q8K215 (peptide sequence: DLEIIRR, peptide start residue: 62)",0.867
13,"UniProt Q8QZR1 (peptide sequence: ARWNVRPSDMSNK, peptide start residue: 39)",-0.327
14,"UniProt Q8K2H3 (peptide sequence: AERHLPEDIKK, peptide start residue: 625)",0.104
15,"UniProt Q8K4Z3 (peptide sequence: GSETMAGAAVK, peptide start residue: 42)",-0.581
16,"UniProt Q8K370 (peptide sequence: TMAIPQDALEK, peptide start residue: 262)",-0.331
17,"UniProt Q8K3J9 (peptide sequence: GVGYETILK, peptide start residue: 320)",-0.0815
18,"UniProt Q8R2M0 (peptide sequence: VVVIEDIKR, peptide start residue: 35)",0.446

# In another format: entries from further up
row	Target	log2 fold change
11	UniProt Q8K136 (peptide sequence: APHYNSCCRR, peptide start residue: 120)	-0.206
2	UniProt Q8R0Z6 (peptide sequence: AQLQQEAR, peptide start residue: 104)	-0.165
